# Measured values taken from publication doi:10.1101/2021.03.24.436638.
# B1: neuronal glycine transporter GlyT2, wild type (protein, UniProt P58295 1-799)
# chain: MDCSAPKEMNKPPTNILEATVPGHRDSPRAPRTSPEQDLPAAAPAAAVQPPRVPRSASTGAQTFQSADARACEAQRPGVGFCKLSSPQAQATSAALRDLSEGHSAQANPPSGAAGAGNALHCKIPALRGPEEDENVSVGKGTLEHNNTPAVGWVNMSQSTVVLGTDGIASVLPGSVATTTIPEDEQGDENKARGNWSSKLDFILSMVGYAVGLGNVWRFPYLAFQNGGGAFLIPYLMMLALAGLPIFFLEVSLGQFASQGPVSVWKAIPALQGCGIAMLIISVLIAIYYNVIICYTLFYLFASFVSVLPWGSCNNPWNTPECKDKTKLLLDSCVIGDHPKIQIKNSTFCMTAYPNLTMVNFTSQANKTFVSGSEEYFKYFVLKISAGIEYPGEIRWPLAFCLFLAWVIVYASLAKGIKTSGKVVYFTATFPYVVLVILLIRGVTLPGAGAGIWYFITPKWEKLTDATVWKDAATQIFFSLSAAWGGLITLSSYNKFHNNCYRDTLIVTCTNSATSIFAGFVIFSVIGFMANERKVNIENVADQGPGIAFVVYPEALTRLPLSPFWAIIFFLMLLTLGLDTMFATIETIVTSISDEFPKYLRTHKPVFTLGCCICFFIMGFPMITQGGIYMFQLVDTYAASYALVIIAIFELVGISYVYGLQRFCEDIEMMIGFQPNIFWKVCWAFVTPTILTFILCFSFYQWEPMTYGSYRYPNWSMVLGWLMLACSVIWIPIMFVIKMYLAPGRFIERLKLVCSPQPDWGPFLAQHRGERYKNMIDPLGTSSLGLKLPVKDLELGTQC
# Biological target: calnexin (simian (endogenous in COS7))
# Assay: co-IP
binder,measurement,value
B1,binding,binds

# No constants are given. Whether binding was seen depends on the method and setting. Binding seen in cells or lysates may run through a third protein. Binding calls can cover weak binding; strength is not graded here.
